In patent publication US20240174763A1 (NOVOPROTEIN SCIENTIFIC, published 2024) one finds binding data, which are given here for 1 molecule.

The target of the test is recombinant monkey CD73 protein (monkey). In words: ELISA, recombinant monkey CD73 coated at 3 ug/mL.

These are yes or no findings as the source states them, for the method shown. Some entries that bind do so weakly or less than the wild type.

B1: humanized CQ137 monoclonal antibody (137-3) (antibody, V domains shown)
VH: QVQLVQSGAEVKKPGSSVKVSCKASGYSFTGYYIHWVRQAPGQGLEWMGRINPYNGATTYNQNFKDRVTITVDKSTSTAYMELSSLRSEDTAVYYCARFHYGAPDYWGQGTLVTVSS
VL: DIQMTQSPSSLSASVGDRVTITCKASQDINTYLTWYQQKPGKAPKTLIYRANILVDGVPSRFSGSGSGTDFTLTISSLQPEDFATYYCLQYDEFPLTFGGGTKVEIKR
With B1, the binding entry was “binds”.
